# Assay results from the supplement of paper PMC3334620.
# The full ranking holds about 33,000 sequences; the median of “E-score (-0.5 to 0.5)” is about -8e-05, and the highest 2% start at about 0.23. The list shows a part of the results.
# Molecular target: T1, Nrg2 (UniProt P38082)
# T1 sequence: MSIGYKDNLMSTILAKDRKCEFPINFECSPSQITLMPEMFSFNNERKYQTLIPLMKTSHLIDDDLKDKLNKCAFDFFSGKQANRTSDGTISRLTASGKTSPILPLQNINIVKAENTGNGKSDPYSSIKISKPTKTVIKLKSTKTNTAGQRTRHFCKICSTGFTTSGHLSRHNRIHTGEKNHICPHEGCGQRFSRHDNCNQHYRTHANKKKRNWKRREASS
# Test: PBM E-score (8-mer binding enrichment) (E-score (-0.5 to 0.5)); higher = stronger / more preferred TF binding
# Settings: protein concentration: 100 nM; construct: GST-full length
# Summary of the method: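 Using PURExpress in vitro transcription/translation, GST-tagged yeast transcription factors were made in full-length or DNA-binding-domain form. These were applied at about 100-200 nM to double-stranded universal all-10-mer Agilent arrays, and bound protein was detected with fluorescent anti-GST. Scans were normalised with masliner before the Universal PBM Analysis Suite assigned E-scores to ungapped eight-base words pooled with their reverse complements.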
row,Sequence,PBM E-score
1,ACAAGCGT,0.0207
2,GCAGGAGA,0.00405
3,ACCACTTA,0.0402
4,CAGGTCGG,-0.0695
5,CTTATTGA,0.0171
6,GACCCAGC,-0.333
7,CTATCCGC,0.144
8,ATACTACG,0.154
9,AGCGGGCG,-0.0722
10,CAGCCATC,0.0587
11,GCGTCTAC,-0.163
12,ACCCGTAT,-0.104
13,AGATTCTA,-0.0259
14,CACGAATA,0.193
15,CAAAGTAC,-0.0816
16,AATTAAAC,0.175
17,GCAAGGAA,0.0335
18,AGGCTTAG,-0.0575
19,ACTAGGGA,-0.147
20,ACTACCAT,0.0215
21,AGATGGGC,0.0593
22,TAGTAATA,0.177
23,AAGCTTAT,0.0868
24,CCATTCGG,0.00625
25,AAGAGACT,-0.298

row,Sequence,PBM E-score
1,AACAACAC,0.169
2,AGATATCT,0.209
3,CTCGGTAA,-0.0475
4,CATCAATA,0.182
5,CGAAACCA,0.0804
6,ACCGATAT,0.0668
7,AACATTAC,0.0574
8,ACAAACGC,0.0288
9,CAATAGGA,-0.149
10,CGAACCCG,-0.0536
11,ACGCCGAA,-0.0379
12,GCAGGGGC,0.0473
13,GTCTGATA,-0.066
14,AGAAACCG,0.145
15,CGCTCTAC,-0.0442
16,AGGCTCGG,-0.249
17,ATTGCCGG,-0.0502
18,CAGCGCAC,-0.155
19,ACTTTACA,0.0269
20,TATTGGAA,-0.236
21,CCCGACTA,-0.119
22,CGGATAAA,0.234
23,GTCTAATA,-0.137
24,TCGGGAAA,0.0979
25,AAACGCAT,-0.216

row,Sequence,PBM E-score
1,TATGATAA,0.219
2,CCATCCGA,0.118
3,ATTTGACA,-0.0488
4,ATAATCAA,0.0599
5,CGGCGGAG,-0.064
6,AGAGTGCC,-0.0757
7,GCAATTTA,0.126
8,CTAAGGGC,0.0457
9,AAAGTAGA,0.0791
10,GATCGCTA,-0.104
11,GCACTGGA,0.0259
12,CTCAGGGA,0.319
13,GCCAATCC,-0.0196
14,CTCGACGA,-0.0937
15,CCTGCTCG,-0.134
16,ATGCGGCA,0.0983
17,ACGTATAG,-0.0219
18,GACTAAAA,0.0739
19,AACTTACC,-0.067
20,CTAACAAC,0.0923
21,GTTTCCAA,-0.156
22,ATAGGATA,-0.0583
23,ATGCGCAG,0.0374
24,GGGTCAAA,0.106
25,AGTCCCTA,0.0553

# A few values from above:
# PBM E-score, AGAGTGCC is entered as -0.0757
# PBM E-score, CTCGACGA is entered as -0.0937

# Next part.

row,Sequence,PBM E-score
1,CGGGGCGC,-0.113
2,ACGGCGGG,0.0668
3,GGAGCAAA,0.0118
4,TTCAGAAA,-0.0353
5,CAAGCCTC,-0.202
6,CCAAACCC,0.0949
7,ATGTAATG,0.115
8,AACAGGCC,-0.202
9,AAGTTTCG,-0.0277
10,AAGTGATA,-0.0985
11,TAATTGGA,0.069
12,ACCTCAAT,-9e-05
13,CGATCAGA,-0.245
14,CGAATATA,0.0742
15,AGTACTTG,0.0357
16,GCCGATAA,-0.0861
17,CTCCAGGA,-0.321
18,CGGGCACA,-0.184
19,AACATGTT,0.0039
20,CACGGAGA,0.0874
21,TAAAATCA,0.0206
22,CGACCGCC,-0.0751
23,CCTTACCC,0.0689
24,AATACCCT,0.155
25,CATACGAG,-0.142

row,Sequence,PBM E-score
1,CTTCTATA,-0.0869
2,GCGCAGGA,-0.0662
3,GGGTTCTA,0.0437
4,AAAGCTTG,0.00751
5,AGTGAGGA,-0.162
6,AAAAGCCC,-0.0279
7,CCCGCACA,0.0668
8,AAGGTTGT,0.0705
9,TTAACTAA,0.249
10,TCCCCACA,-0.193
11,GCAAAGTA,0.14
12,AACCTGGG,-0.131
13,AAATTCTA,-0.154
14,CCGGTATA,0.0762
15,ACGGATCA,-0.0271
16,AGTCAATA,-0.0505
17,AGCGGCGA,0.043
18,GCTTTGCC,-0.251
19,GCTTCCAA,-0.0524
20,AACTTCGT,-0.0105
21,CCCACCCG,0.231
22,ACCCAATG,-0.127
23,ACGGCATC,-0.168
24,ATGTACTC,-0.0872
25,GTTTTTGA,0.203

# Some of the entries so far, with bars between the fields.
row | Sequence | PBM E-score
5 | CTTATTGA | 0.0171
7 | CTATCCGC | 0.144
7 | AACATTAC | 0.0574
2 | GCGCAGGA | -0.0662

# (cont.)

row,Sequence,PBM E-score
1,GTTGTGCA,-0.0974
2,CCGGTGGC,-0.237
3,AAGACGGT,-0.161
4,AGCCTCAA,-0.112
5,GCCTTCTA,-0.0848
6,ACCTTATC,-0.0402
7,ACACCTGA,-0.0119
8,ACAGGCAG,0.0296
9,AAGGAATC,-0.137
10,GTTAGCGA,-0.131
11,ATGCTTCC,-0.108
12,ATTACCCG,0.0956
13,CTCCGCTC,-0.156
14,ACACGGCA,-0.0844
15,TCAGCTCA,0.0651
16,CTGTTCAC,0.0743
17,CATCAATG,0.0811
18,CACTGACA,0.0481
19,AAAGTCTG,-0.0463
20,CTCCGGTA,-0.0857
21,GCCGAGGC,0.177
22,ATTTGGGC,-0.0166
23,GGTTAAAC,-0.104
24,CGTAGTTC,-0.0931
25,GCAAACCA,0.0737

row,Sequence,PBM E-score
1,ATCGCTTC,-0.0538
2,CTTAAGGC,-0.0614
3,AGCGAGAT,0.18
4,CGAGCACG,0.0279
5,ACCCCGGT,-0.174
6,ATCCTAGG,-0.0272
7,CCTACAGA,-0.0971
8,AATGGGGT,0.133
9,CTGGAGCC,-0.248
10,AGGCTCCC,-0.279
11,CAGATCTC,-0.0544
12,ATTTAGGC,0.0621
13,ACCAAAAA,0.22
14,AGCACACC,-0.197
15,AACCAAAC,-0.142
16,GAGTGAAA,-0.0743
17,GACGTCTC,-0.0301
18,ATCGTGCC,-0.145
19,ATCTAGGG,0.108
20,TCCAACCA,-0.0134
21,CTGAGCAA,-0.0589
22,CCTTGCAC,0.116
